Measured values published in patent US5446129A, “Peptide or its salt for autoimmune hyperthyroidism containing it” (Ishihara Sangyo Kaisha Ltd., priority 1990, dated 1995).
At least one peptide structure holds a part that was inferred or is arguable (an end, a ring closure or a residue). No end group written: not given here.

Key:
[1] = test system: production of cAMP under stimulation by TSAb; assay: Test Example 2: cAMP produced under stimulation by TSAb in FRTL5 cells (96-well); assay type: cell-based, rat; details: TSAb positive IgG
Protocol: Using rat established thyroid cell line FRTL5, the influence of the peptide over the production of cAMP under stimulation by TSAb, was examined in accordance with the method of S. Kosugi et al. (Endocrinology, Vol. 125, No. 1, p 410 (1989)). The method will be described as follows.
Preincubated FRTL5 cells (1.5×10^5 cells/ml) were transferred to a multiplate having 96 wells in an amount of 100 μl per well and incubated in a CO2 incubator for 6 days while changing the medium (having TSH excluded). Then, the medium was removed and the cells were rinsed and subjected to the test. 40 μl of a solution of IgG from TSAb positive serum and 10 μl of a solution containing 0, 15 or 30 μg of the desired peptide were reacted in a test tube at 4° C. for 20 hours. To this reaction solution, 5 μl of a 0.5 mM solution of 3-isobutyl-1-methylxanthine was added, and 50 μl of this reaction solution was added to the previously prepared FRTL5 cells, followed by incubation at 37° C. for two hours.
On the other hand, as control, a test was conducted in the same manner using a normal serum.
With respect to each sample, the quantitative analysis of cAMP produced under stimulation by TSAb was conducted by means of a commercially available cAMP-radioimmunoassay kit (1-VQ12, manufactured by Eiken Kagaku Corporation).

[2] = test system: production of cAMP under stimulation by TSAb; assay: Test Example 1: influence of peptide on cAMP production under stimulation by TSAb in FRTL5 cells; assay type: cell-based, rat; details: 10 μg/well peptide, IgG from TSAb positive patient serum, from FIG. 1

Sequence	Inhibition rate ([1]; 15 μg/well peptide)	cAMP ([1]; 15 μg/well peptide)	Inhibition rate ([1]; 30 μg/well peptide)	cAMP ([1]; 30 μg/well peptide)	suppression of the production of cAMP by TSAb as compared with production in the absence of the peptide [2]
VFFEEQED [Peptide No. 7]	51%	3.3 nM	60%	3.1 nM	
VFFEEQEDEI [Peptide No. 1]					about 25%
VFFEEQEDEIIGFG [Peptide No. 2]	50%	3.4 nM	85%	1.2 nM	about 50%
VFFEEQEDEIIGFGQELKNPQEETL [Peptide No. 5]	48%	3.5 nM	83%	1.3 nM	
